Laboratory results: PubChem BioAssay AID1508587 (Peter MacCallum Cancer Centre, 2020)
This is one part, drawn at random, of about 1,600 deposited reagents. Of all reagents, 623 (39%) are marked active. 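Calls are for each duplex; lactate ratios contain extreme outliers.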 The numbers tell different reagents against one gene apart. Further read-outs or replicates are left out here.

Purpose: 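Knockdowns that add to vemurafenib's cut in melanoma glycolysis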 (follow-up of hits)
Cells: human WM266.4 melanoma cells with a BRAF V600 mutation
Knock-down reagent: single siRNA against human genes, 25 nM
Timing: 96 h
Conditions: vemurafenib 300 nM (about IC25), given 48 h after transfection for 48 h
Detection: 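Medium lactate read by absorbance over DAPI-counted nuclei; ratio with versus without vemurafenib, set against non-targeting siRNA, averaged over 2 replicates; cell number also recorded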
Reading the numbers: lactate per cell, drug vs no drug: higher = less drug-induced drop in lactate per cell; lactate per cell with vemurafenib: higher = more lactate per cell under drug
Call rule: 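Enhancer call for any duplex whose drug versus no-drug per-cell lactate ratio is below 0.55 (2 SD beneath non-targeting average); genes confirmed when at least 2 of their 4 duplexes qualify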

gene symbol | reagent | lactate per cell, drug vs no drug | lactate per cell with vemurafenib | Outcome
PDPK1 | 1 | 0.48 | 0.88 | active
PDPK1 | 2 | 0.6 | 0.84 | inactive
PDPK1 | 3 | 0.34 | 0.42 | active
PDPK1 | 4 | 0.66 | 0.62 | inactive
RHO | 1 | 0.58 | 1.05 | inactive
RHO | 2 | 0.6 | 1.66 | inactive
RHO | 3 | 0.64 | 2.04 | inactive
RHO | 4 | 0.44 | 0.5 | active
PRELP | 1 | 0.57 | 1.08 | inactive
PRELP | 2 | 0.65 | 2.79 | inactive
PRELP | 3 | 0.55 | 1.1 | inactive
PRELP | 4 | 0.58 | 1 | inactive
HTR7 | 1 | 0.66 | 2 | inactive
HTR7 | 2 | 0.62 | 1.38 | inactive
HTR7 | 3 | 0.45 | 1.34 | active
HTR7 | 4 | 0.74 | 1.12 | inactive
H2BC4 | 1 | 0.48 | 0.53 | active
H2BC4 | 2 | 0.68 | 1.27 | inactive
H2BC4 | 3 | 0.84 | 1.29 | inactive
H2BC4 | 4 | 0.58 | 0.97 | inactive
FAR1 | 1 | 0.4 | 0.56 | active
FAR1 | 2 | 0.5 | 0.69 | active
FAR1 | 3 | 0.68 | 1.35 | inactive
FAR1 | 4 | 0.68 | 2.02 | inactive
MGST3 | 1 | 0.59 | 0.92 | inactive
MGST3 | 2 | 0.64 | 2.25 | inactive
MGST3 | 3 | 0.58 | 0.88 | inactive
MGST3 | 4 | 0.53 | 1.52 | active
SCAMP2 | 1 | 0.73 | 1.66 | inactive
SCAMP2 | 2 | 0.47 | 1.04 | active
SCAMP2 | 3 | 0.42 | 0.7 | active
SCAMP2 | 4 | 0.56 | 1.23 | inactive
TGM6 | 1 | 0.38 | 0.88 | active
TGM6 | 2 | 0.59 | 1.08 | inactive
TGM6 | 3 | 0.31 | 0.48 | active
TGM6 | 4 | -1.02 | -0.45 | active

Entries listed so far whose gene name begins with M or m (4):
gene symbol | reagent | lactate per cell, drug vs no drug | lactate per cell with vemurafenib | Outcome
MGST3 | 1 | 0.59 | 0.92 | inactive
MGST3 | 2 | 0.64 | 2.25 | inactive
MGST3 | 3 | 0.58 | 0.88 | inactive
MGST3 | 4 | 0.53 | 1.52 | active
